# Assay results reported in PMC5996148.
# By UniProt entry, the sequences of proteins in these tests, tags left out.
# UniProt Q8TDD1, whole entry: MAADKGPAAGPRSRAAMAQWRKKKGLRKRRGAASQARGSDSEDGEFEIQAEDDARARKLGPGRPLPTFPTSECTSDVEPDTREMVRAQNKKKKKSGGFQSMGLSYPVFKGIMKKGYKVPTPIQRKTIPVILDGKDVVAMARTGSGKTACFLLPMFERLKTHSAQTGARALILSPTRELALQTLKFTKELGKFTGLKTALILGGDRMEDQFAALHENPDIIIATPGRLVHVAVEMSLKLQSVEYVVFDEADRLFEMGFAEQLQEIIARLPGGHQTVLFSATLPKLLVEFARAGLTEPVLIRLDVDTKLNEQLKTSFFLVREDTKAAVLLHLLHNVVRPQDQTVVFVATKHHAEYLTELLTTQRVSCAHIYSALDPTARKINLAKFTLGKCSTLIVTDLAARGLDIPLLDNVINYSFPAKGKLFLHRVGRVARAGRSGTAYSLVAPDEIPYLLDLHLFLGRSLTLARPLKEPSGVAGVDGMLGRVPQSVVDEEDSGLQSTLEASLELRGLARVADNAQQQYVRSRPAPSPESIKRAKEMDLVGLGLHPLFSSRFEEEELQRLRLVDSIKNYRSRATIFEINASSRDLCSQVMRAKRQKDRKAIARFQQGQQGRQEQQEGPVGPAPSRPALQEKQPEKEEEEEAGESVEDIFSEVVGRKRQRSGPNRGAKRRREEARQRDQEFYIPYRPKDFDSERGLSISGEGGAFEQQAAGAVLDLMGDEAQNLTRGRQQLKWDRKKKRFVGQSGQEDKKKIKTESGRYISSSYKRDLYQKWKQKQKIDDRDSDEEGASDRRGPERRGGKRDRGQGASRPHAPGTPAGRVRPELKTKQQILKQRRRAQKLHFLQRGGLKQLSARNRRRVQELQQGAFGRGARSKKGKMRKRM
# “And” between values parts separate entries of the source, which are not always exact repeats. Equal entries are not always repeated. The list shows a part of the results. For some assays here: The exact form of the protein is not confirmed.
# Legend:
# Assay in all cases: protein microarray (ProtoArray v5.0), streptavidin-Alexa Fluor 647
# Conditions in all cases: 3'-biotin; 20 mM Tris (pH 7.5), 5 mM MgCl2, 100 mM KCl, 0.1% Tween-20, A/T-rich and random oligonucleotide blockers; temperature not stated; high values mean tight binding
# [1] = test system: Cytoplasmic dynein 1 heavy chain 1 (human)
# [2] = test system: Cytosolic non-specific dipeptidase (human)
# [3] = test system: DAZ-associated protein 2 (human)
# DBNDD1 (human) = test system: DBNDD1 (human)
# DBNDD2 (human) = test system: DBNDD2 (human)
# [4] = test system: DCN1-like protein 1 (human)
# DCPS (human) = test system: DCPS (human)
# DCTD (human) = test system: DCTD (human)
# DCTN2 (human) = test system: DCTN2 (human)
# DCUN1D3 (human) = test system: DCUN1D3 (human)
# DCX = biological target: T1, DCX (UniProt O43602)
# T1 sequence: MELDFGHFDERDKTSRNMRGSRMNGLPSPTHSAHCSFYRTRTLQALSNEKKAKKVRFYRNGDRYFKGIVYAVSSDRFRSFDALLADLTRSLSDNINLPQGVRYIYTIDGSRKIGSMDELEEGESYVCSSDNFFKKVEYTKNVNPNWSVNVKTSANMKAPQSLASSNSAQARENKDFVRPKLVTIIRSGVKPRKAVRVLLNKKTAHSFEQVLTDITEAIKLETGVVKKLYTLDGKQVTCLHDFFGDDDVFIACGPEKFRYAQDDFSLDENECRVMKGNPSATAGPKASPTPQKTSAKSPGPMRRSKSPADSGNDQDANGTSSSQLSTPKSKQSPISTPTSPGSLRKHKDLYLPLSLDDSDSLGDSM
# DDAH2 (human) = test system: DDAH2 (human)
# DDX21 = biological target: T2, DDX21 (UniProt Q9NR30)
# T2 sequence: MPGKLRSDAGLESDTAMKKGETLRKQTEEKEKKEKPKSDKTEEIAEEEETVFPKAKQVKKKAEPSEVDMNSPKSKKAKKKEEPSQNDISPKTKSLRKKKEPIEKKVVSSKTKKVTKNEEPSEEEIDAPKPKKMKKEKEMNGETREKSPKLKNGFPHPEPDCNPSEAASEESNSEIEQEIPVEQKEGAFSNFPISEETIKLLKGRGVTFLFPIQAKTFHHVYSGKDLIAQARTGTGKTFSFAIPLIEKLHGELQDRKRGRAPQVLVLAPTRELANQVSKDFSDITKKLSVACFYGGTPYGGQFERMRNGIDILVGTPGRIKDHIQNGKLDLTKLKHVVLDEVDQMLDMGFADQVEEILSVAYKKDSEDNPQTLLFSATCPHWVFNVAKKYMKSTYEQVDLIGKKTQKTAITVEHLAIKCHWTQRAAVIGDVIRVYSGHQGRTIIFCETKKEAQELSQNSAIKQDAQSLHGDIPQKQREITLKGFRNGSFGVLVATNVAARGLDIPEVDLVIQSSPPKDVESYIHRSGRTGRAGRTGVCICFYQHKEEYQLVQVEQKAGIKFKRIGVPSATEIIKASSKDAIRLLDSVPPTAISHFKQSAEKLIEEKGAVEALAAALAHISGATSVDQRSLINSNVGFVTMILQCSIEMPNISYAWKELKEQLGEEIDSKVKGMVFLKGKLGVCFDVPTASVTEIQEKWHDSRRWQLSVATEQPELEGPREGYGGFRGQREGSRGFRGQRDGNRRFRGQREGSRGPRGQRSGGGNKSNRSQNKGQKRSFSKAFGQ
# DDX54 = DDX54 (UniProt Q8TDD1)
# DDX55 = biological target: T3, DDX55 (UniProt Q8NHQ9)
# T3 sequence: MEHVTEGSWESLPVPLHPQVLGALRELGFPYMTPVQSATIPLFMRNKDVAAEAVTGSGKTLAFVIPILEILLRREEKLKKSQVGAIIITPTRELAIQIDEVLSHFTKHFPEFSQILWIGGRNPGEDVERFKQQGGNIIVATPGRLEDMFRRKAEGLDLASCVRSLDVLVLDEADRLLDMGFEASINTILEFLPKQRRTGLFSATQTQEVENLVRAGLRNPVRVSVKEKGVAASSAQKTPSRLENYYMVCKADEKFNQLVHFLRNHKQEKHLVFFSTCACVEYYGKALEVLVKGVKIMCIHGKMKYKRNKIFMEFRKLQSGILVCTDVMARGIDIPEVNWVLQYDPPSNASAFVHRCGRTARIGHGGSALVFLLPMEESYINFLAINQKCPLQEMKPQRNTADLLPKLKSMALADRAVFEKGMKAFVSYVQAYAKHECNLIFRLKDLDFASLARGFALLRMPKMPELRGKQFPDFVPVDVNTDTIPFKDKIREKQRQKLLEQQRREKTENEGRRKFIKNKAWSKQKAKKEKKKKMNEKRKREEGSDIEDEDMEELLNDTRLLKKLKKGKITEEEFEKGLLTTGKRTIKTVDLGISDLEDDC
# DEFA6 (human) = test system: DEFA6 (human)
# DEFB1 (human) = test system: DEFB1 (human)
# DEFB119 (human) = test system: DEFB119 (human)
# DFFA (human) = test system: DFFA (human)
# DFNA5 (human) = test system: DFNA5 (human)
sequence,measurement,setting,value
GGTGACAGGGGTATGGGGAGGGG [G4-2 biotinylated (Ct1)],binding signal,[1],-0.389 z-score
same,binding signal,[2],-0.39 z-score
same,binding signal,[3],-0.385 z-score
same,binding signal,DBNDD1 (human),-0.381 z-score
same,binding signal,DBNDD2 (human),-0.392 z-score
same,binding signal,[4],-0.373 z-score
same,binding signal,DCPS (human),-0.377 z-score
same,binding signal,DCTD (human),-0.384 z-score
same,binding signal,DCTN2 (human),-0.385 z-score
same,binding signal,DCUN1D3 (human),-0.396 z-score
same,binding signal,DCX,3.73 z-score
same,binding signal,DDAH2 (human),-0.372 z-score
same,binding signal,DDX21,6.44 z-score
same,binding signal,DDX54,5.87 z-score
same,binding signal,DDX55,5.51 z-score
same,binding signal,DEFA6 (human),-0.386 z-score
same,binding signal,DEFB1 (human),-0.372 z-score
same,binding signal,DEFB119 (human),-0.365 z-score
same,binding signal,DFFA (human),-0.404 z-score and -0.401 z-score
same,binding signal,DFNA5 (human),-0.393 z-score

# Taken from the results shown for reference:
sequence,measurement,setting,value
GGTGACAGGGGTATGGGGAGGGG [G4-2 biotinylated (Ct1)],binding signal,DEFB1 (human),-0.372 z-score
same,binding signal,DEFB119 (human),-0.365 z-score
